Many values rest on one well or one pass, so single values are uncertain.
Compound: [O-][N+](C(C1=C(C(O)=C2)NC(C(C=C3)=CC=C3Cl)C4C1C=CC4)=C2Cl)=O
Experiment: melting temperature shift (compound 7 minus DMSO); higher = compound stabilises the protein
Settings: 10 µM
Description: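 Thermal proteome profiling (TMT mass spectrometry) in intact DAOY medulloblastoma cells or DAOY lysates treated with 10 µM compound 7 or DMSO, heated at 10 temperatures from 40.5 to 73.8 °C for 3 min. Melting curves were fitted with the Bioconductor TPP package, and the melting point difference between compound and vehicle is reported per protein (single curve per condition).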

Chains of the proteins cited; added tags and fusions are not shown. Lines headed by an entry give the natural chain unless they say otherwise; changes in a name come on top.
UniProt Q9H0R4: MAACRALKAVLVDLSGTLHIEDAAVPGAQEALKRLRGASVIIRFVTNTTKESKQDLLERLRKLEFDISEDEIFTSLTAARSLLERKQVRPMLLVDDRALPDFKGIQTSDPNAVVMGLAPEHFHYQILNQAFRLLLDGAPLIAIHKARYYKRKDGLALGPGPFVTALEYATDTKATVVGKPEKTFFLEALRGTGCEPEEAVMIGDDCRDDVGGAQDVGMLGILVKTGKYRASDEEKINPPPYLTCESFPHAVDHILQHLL
UniProt O43524: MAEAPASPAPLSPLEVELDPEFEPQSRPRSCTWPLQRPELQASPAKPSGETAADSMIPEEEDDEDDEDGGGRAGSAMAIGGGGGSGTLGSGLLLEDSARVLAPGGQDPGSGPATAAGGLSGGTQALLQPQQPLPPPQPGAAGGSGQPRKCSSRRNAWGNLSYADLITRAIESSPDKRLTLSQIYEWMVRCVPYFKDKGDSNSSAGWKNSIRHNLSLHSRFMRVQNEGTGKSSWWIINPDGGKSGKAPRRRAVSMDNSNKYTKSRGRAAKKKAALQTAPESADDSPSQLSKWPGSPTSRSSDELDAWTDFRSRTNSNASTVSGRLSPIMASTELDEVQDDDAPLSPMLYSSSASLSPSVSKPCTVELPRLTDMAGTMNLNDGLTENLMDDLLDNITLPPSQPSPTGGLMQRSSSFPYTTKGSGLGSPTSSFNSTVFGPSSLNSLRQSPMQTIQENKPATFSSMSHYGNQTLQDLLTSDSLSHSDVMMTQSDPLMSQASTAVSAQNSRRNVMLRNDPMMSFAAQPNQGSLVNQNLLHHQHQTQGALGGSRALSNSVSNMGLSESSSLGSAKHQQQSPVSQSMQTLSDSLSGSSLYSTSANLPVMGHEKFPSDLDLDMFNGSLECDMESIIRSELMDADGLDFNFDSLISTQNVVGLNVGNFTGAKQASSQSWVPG
UniProt Q9Y3I0: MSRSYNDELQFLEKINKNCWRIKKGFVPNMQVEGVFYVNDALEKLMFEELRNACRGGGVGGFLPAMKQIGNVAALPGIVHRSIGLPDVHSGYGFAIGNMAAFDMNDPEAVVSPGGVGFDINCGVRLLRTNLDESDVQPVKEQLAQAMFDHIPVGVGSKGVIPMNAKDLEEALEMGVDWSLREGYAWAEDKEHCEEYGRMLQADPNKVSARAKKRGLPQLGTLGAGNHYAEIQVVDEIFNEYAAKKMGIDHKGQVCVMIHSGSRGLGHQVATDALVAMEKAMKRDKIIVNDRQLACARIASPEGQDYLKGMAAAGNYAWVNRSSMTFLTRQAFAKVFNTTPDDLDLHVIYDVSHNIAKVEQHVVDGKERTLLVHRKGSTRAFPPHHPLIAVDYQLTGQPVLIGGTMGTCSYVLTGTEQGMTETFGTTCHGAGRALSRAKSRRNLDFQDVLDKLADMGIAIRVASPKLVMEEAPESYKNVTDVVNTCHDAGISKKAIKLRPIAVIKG
UniProt O00410: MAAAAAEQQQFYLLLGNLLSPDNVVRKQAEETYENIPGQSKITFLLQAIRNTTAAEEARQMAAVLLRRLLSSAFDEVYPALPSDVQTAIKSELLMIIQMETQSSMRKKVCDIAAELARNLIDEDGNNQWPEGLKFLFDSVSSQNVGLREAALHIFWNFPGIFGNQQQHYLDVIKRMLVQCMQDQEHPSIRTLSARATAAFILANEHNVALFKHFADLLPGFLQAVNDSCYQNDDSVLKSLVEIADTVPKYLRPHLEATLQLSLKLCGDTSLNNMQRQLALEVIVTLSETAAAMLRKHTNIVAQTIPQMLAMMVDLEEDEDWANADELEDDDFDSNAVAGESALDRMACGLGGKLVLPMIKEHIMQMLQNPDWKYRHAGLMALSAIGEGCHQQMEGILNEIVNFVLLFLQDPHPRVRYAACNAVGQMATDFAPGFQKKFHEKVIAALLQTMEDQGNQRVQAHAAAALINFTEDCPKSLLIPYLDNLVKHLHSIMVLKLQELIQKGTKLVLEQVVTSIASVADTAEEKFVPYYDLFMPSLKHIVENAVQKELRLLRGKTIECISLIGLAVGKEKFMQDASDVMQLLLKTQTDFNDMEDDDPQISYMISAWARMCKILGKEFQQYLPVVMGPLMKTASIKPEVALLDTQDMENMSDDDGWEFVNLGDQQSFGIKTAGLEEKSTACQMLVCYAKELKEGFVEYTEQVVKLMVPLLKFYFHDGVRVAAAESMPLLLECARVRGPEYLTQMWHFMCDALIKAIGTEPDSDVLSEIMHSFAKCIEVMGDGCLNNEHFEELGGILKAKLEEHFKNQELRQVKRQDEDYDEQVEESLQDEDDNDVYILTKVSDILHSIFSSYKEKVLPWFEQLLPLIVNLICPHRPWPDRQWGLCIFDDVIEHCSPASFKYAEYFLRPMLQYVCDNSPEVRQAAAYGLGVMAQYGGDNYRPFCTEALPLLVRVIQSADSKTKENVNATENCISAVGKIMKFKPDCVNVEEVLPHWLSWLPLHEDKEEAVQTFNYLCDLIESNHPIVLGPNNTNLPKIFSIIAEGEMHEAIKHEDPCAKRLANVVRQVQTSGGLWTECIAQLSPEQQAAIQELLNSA
UniProt O43924: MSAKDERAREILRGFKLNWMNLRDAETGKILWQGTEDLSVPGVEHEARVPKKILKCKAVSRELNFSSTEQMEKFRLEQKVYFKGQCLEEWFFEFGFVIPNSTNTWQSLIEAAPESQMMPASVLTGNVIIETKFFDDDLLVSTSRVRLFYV
UniProt Q9H0N5: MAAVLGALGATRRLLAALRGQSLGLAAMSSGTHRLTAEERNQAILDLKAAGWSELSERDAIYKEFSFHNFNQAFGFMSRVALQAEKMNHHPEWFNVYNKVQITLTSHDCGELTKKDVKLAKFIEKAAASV
UniProt Q7Z3H0: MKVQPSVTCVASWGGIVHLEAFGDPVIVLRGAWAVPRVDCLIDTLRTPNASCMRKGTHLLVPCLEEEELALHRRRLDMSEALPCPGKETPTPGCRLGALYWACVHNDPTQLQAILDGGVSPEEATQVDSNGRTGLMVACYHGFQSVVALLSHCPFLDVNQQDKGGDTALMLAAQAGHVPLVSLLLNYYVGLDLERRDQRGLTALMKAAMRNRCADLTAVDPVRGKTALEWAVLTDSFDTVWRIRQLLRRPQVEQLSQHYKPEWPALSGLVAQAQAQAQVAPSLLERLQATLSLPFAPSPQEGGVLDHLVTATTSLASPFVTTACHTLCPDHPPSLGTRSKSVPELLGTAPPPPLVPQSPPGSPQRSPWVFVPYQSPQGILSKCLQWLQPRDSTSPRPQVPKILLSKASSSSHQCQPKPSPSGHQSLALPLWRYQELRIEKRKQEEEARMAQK
UniProt A8MTA8: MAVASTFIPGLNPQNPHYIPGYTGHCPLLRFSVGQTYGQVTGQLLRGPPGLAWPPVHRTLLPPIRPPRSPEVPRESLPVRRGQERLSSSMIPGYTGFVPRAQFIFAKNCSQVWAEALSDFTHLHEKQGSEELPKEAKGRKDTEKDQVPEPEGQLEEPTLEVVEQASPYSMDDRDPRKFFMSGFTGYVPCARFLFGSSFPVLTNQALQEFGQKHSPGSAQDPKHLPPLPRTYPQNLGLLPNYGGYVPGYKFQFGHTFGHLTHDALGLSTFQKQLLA
UniProt P63092, whole entry, looked up: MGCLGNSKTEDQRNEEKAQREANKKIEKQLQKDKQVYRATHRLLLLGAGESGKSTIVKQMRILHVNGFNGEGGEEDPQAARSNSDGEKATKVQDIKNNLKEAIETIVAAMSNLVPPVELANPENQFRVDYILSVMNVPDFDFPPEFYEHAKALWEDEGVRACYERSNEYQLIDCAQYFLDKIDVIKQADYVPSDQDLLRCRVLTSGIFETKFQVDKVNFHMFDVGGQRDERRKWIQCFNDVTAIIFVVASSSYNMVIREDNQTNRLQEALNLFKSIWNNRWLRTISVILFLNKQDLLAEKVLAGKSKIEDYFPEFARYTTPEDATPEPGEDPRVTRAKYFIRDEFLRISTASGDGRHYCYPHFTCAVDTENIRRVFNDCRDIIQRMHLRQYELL
UniProt Q14165: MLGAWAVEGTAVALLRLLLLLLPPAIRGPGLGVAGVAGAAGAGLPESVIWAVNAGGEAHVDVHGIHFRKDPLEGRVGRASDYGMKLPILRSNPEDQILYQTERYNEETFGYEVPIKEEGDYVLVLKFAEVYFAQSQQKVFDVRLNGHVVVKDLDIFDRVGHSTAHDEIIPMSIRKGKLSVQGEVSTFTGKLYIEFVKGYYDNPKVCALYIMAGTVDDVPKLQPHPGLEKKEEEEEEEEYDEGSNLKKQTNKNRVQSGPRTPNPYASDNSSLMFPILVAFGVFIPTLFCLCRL
UniProt Q5TA31: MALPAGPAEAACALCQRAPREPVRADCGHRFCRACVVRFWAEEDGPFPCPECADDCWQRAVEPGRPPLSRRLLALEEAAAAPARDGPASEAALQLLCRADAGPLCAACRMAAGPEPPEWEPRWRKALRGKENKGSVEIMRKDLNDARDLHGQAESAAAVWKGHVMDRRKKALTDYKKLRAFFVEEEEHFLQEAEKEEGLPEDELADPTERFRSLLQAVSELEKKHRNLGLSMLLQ
UniProt O14684: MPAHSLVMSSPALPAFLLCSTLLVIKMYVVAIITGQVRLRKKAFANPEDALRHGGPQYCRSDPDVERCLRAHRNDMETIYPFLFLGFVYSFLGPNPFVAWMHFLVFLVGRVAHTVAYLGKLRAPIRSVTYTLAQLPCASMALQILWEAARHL
UniProt Q96FQ6: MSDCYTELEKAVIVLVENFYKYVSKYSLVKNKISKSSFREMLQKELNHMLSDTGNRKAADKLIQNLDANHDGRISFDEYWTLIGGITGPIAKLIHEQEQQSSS
UniProt Q53EP0: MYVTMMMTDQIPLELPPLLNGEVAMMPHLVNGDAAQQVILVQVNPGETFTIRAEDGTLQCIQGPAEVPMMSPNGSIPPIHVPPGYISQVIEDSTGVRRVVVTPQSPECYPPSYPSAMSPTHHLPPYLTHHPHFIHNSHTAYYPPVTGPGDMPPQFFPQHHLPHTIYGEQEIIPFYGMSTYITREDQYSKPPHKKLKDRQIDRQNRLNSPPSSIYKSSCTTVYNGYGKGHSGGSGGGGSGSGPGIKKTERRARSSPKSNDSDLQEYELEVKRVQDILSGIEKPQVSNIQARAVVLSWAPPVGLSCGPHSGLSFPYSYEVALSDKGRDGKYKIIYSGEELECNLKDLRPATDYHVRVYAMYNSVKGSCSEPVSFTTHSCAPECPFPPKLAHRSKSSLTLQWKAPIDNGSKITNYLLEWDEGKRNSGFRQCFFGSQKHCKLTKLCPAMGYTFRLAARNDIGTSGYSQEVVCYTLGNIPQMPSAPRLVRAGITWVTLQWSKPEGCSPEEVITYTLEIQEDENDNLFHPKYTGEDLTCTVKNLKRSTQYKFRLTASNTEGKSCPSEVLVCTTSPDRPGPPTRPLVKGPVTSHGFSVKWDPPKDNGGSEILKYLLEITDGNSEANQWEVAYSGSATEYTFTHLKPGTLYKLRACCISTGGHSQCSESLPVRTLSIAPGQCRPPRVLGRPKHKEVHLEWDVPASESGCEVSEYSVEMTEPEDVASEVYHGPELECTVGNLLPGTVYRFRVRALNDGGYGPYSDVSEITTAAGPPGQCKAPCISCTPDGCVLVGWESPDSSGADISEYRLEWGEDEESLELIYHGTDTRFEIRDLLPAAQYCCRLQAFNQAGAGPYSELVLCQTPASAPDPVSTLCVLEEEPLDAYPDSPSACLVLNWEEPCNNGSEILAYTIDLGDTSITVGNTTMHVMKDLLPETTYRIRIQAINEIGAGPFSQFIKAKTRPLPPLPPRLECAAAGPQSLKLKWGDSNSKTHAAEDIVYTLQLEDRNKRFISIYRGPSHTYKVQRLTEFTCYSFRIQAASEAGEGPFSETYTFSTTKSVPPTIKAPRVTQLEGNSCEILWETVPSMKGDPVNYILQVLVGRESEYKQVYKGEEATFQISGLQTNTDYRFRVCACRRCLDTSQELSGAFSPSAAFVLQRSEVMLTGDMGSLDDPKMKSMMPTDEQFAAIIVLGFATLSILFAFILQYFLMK
UniProt O96019, whole entry: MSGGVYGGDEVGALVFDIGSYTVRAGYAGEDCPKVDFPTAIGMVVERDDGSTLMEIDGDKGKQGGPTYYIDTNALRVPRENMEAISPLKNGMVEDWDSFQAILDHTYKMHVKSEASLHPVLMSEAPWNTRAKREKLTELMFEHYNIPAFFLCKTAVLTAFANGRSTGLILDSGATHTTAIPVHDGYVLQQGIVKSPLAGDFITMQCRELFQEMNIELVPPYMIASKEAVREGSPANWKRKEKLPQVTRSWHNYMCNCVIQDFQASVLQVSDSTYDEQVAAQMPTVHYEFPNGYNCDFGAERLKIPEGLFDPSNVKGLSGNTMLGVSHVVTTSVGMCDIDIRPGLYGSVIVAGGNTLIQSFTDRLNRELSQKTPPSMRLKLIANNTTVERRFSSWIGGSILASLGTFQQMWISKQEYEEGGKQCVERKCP

[1] = system: DAOY cell lysate, treatment time: 20 min, 4 °C
[2] = system: intact DAOY cells, treatment time: 90 min, 37 °C

Row | Target | melting temperature shift [1] [°C] | melting temperature shift [2] [°C]
1 | HDHD2 (UniProt Q9H0R4) | -0.602 | 1.28
2 | UniProt Q9P0M6 | 1.72 | 0.485
3 | UniProt A6NCE7 | – | -0.00167
4 | TPP1 (UniProt O14773) | 1.01 | –
5 | TARDBP (UniProt Q13148) | – | -0.0878
6 | UniProt Q8TDI0 | 0.64 | -0.686
7 | UniProt Q8N0Y7 | – | -1.99
8 | TONSL (UniProt Q96HA7) | 0.859 | –
9 | ARHGDIB (UniProt P52566) | -0.714 | 0.221
10 | FOXO3 (UniProt O43524) | 1.14 | –
11 | ZFP36L2 (UniProt P47974) | -0.786 | 2.62
12 | UniProt Q99643 | 1.79 | -7.55
13 | GOLGA4 (UniProt Q13439) | -0.229 | -0.00738
14 | RTCB (UniProt Q9Y3I0) | -0.214 | 0.0216
15 | IPO5 (UniProt O00410) | -0.573 | -0.25
16 | PUM1 (UniProt Q14671) | 0.624 | -0.0295
17 | BIRC2 (UniProt Q13490) | -0.663 | 0.465
18 | LAS1L (UniProt Q9Y4W2) | 0.222 | –
19 | PDE6D (UniProt O43924) | 0.809 | 1.36
20 | UniProt P54687 | -0.884 | -1.9
21 | ANKHD1 (UniProt Q8IWZ3) | 0.187 | 0.538
22 | PSMD2 (UniProt Q13200) | -0.616 | -1.13
23 | MARK2 (UniProt Q7KZI7) | -1.11 | 0.491
24 | UniProt Q6ZTN6 | – | -1

Row | Target | melting temperature shift [1] [°C] | melting temperature shift [2] [°C]
25 | UniProt Q9H0N5 | 2.34 | –
26 | UniProt Q7Z3H0 | – | -0.362
27 | CUL1 (UniProt Q13616) | -1.23 | -0.618
28 | DENR (UniProt O43583) | -0.571 | -0.768
29 | UniProt Q9BPU6 | -0.0197 | -2.08
30 | UniProt A8MTA8 | -3.32 | –
31 | UniProt P63092 | 0.863 | -0.571
32 | MLEC (UniProt Q14165) | 1.12 | 0.454
33 | UniProt Q15274 | – | -3.29
34 | SNRNP200 (UniProt O75643) | -0.0373 | 0.617
35 | RPL7 (UniProt P18124) | 0.169 | -0.503
36 | RHEB (UniProt Q15382) | 0.0421 | -1.45
37 | RAB32 (UniProt Q13637) | -0.474 | -1.86
38 | DTD1 (UniProt Q8TEA8) | 0.748 | -1.01
39 | RNF187 (UniProt Q5TA31) | -0.000683 | –
40 | UniProt O14684 | 0.852 | 2.33
41 | IBA57 (UniProt Q5T440) | – | 1.89
42 | UniProt Q9BVS4 | – | 0.401
43 | S100A16 (UniProt Q96FQ6) | 0.819 | 2.03
44 | ILF3 (UniProt Q12906) | 0.12 | 0.259
45 | PPP1CC (UniProt P36873) | 1.13 | -0.649
46 | UniProt Q8IUE6 | – | 0.17
47 | FNDC3B (UniProt Q53EP0) | 0.173 | 0.0309
48 | ACTL6A (UniProt O96019) | -0.2 | 0.927

15 consecutive entries out of the list so far, quoted:
Row | Target | melting temperature shift [1] [°C] | melting temperature shift [2] [°C]
31 | UniProt P63092 | 0.863 | -0.571
32 | MLEC (UniProt Q14165) | 1.12 | 0.454
33 | UniProt Q15274 | – | -3.29
34 | SNRNP200 (UniProt O75643) | -0.0373 | 0.617
35 | RPL7 (UniProt P18124) | 0.169 | -0.503
36 | RHEB (UniProt Q15382) | 0.0421 | -1.45
37 | RAB32 (UniProt Q13637) | -0.474 | -1.86
38 | DTD1 (UniProt Q8TEA8) | 0.748 | -1.01
39 | RNF187 (UniProt Q5TA31) | -0.000683 | –
40 | UniProt O14684 | 0.852 | 2.33
41 | IBA57 (UniProt Q5T440) | – | 1.89
42 | UniProt Q9BVS4 | – | 0.401
43 | S100A16 (UniProt Q96FQ6) | 0.819 | 2.03
44 | ILF3 (UniProt Q12906) | 0.12 | 0.259
45 | PPP1CC (UniProt P36873) | 1.13 | -0.649
